The supplement of paper PMC3353916
Single values of this set are uncertain.

Tested on: Sindbis virus TE/5'2J-GFP
Assay: percent infected (GFP+ in RFP+ ISG-expressing cells); higher = more infection (less antiviral activity)
Conditions: experiment: primary screen (single well)

MALAPERAAPRVLFGEWLLGEISSGCYEGLQWLDEARTCFRVPWKHFARKDLSEADARIFKAWAVARGRWPPSSRGGGPPPEAETAERAGWKTNFRCALRSTRRFVMLRDNSGDPADPHKVYALSRELCWREGPGTDQTEAEAPAAVPPPQGGPPGPFLAHTHAGLQAPGPLPAPAGDKGDLLLQAVQQSCLADHLLTASWGADPVPTKAPGEGQEGLPLTGACAGGPGLPAGELYGWAVETTPSPGPQPAALTTGEAAAPESPHQAEPYLSPSPSACTAVQEPSPGALDVTIMYKGRTVLQKVVGHPSCTFLYGPPDPAVRATDPQQVAFPSPAELPDQKQLRYTEELLRHVAPGLHLELRGPQLWARRMGKCKVYWEVGGPPGSASPSTPACLLPRNCDTPIFDFRVFFQELVEFRARQRRGSPRYTIYLGFGQDLSAGRPKEKSLVLVKLEPWLCRVHLEGTQREGVSSLDSSSLSLCLSSANSLYDDIECFLMELEQPA [IRF7]
percent infected (BHK/HA-Zeo (control)): 93.9%
percent infected (BHK/NZAP-Zeo (ZAP)): 49.7%

MALEIHMSDPMCLIENFNEQLKVNQEALEILSAITQPVVVVAIVGLYRTGKSYLMNKLAGKNKGFSVASTVQSHTKGIWIWCVPHPNWPNHTLVLLDTEGLGDVEKADNKNDIQIFALALLLSSTFVYNTVNKIDQGAIDLLHNVTELTDLLKARNSPDLDRVEDPADSASFFPDLVWTLRDFCLGLEIDGQLVTPDEYLENSLRPKQGSDQRVQNFNLPRLCIQKFFPKKKCFIFDLPAHQKKLAQLETLPDDELEPEFVQQVTEFCSYIFSHSMTKTLPGGIMVNGSRLKNLVLTYVNAISSGDLPCIENAVLALAQRENSAAVQKAIAHYDQQMGQKVQLPMETLQELLDLHRTSEREAIEVFMKNSFKDVDQSFQKELETLLDAKQNDICKRNLEASSDYCSALLKDIFGPLEEAVKQGIYSKPGGHNLFIQKTEELKAKYYREPRKGIQAEEVLQKYLKSKESVSHAILQTDQALTETEKKKKEAQVKAEAEKAEAQRLAAIQRQNEQMMQERERLHQEQVRQMEIAKQNWLAEQQKMQEQQMQEQAAQLSTTFQAQNRSLLSELQHAQRTVNNDDPCVLL [GBP5]
percent infected (BHK/HA-Zeo (control)): 96.8%
percent infected (BHK/NZAP-Zeo (ZAP)): 84.7%

MALLDVCGAPRGQRPESALPVAGSGRRSDPGHYSFSMRSPELALPRGMQPTEFFQSLGGDGERNVQIEMAHGTTTLAFKFQHGVIAAVDSRASAGSYISALRVNKVIEINPYLLGTMSGCAADCQYWERLLAKECRLYYLRNGERISVSAASKLLSNMMCQYRGMGLSMGSMICGWDKKGPGLYYVDEHGTRLSGNMFSTGSGNTYAYGVMDSGYRPNLSPEEAYDLGRRAIAYATHRDSYSGGVVNMYHMKEDGWVKVESTDVSDLLHQYREANQ [PSMB8]
percent infected (BHK/HA-Zeo (control)): 95.4%
percent infected (BHK/NZAP-Zeo (ZAP)): 84.8%

MALLFLLPLVMQGVSRAEMGTADLGPSSVPTPTNVTIESYNMNPIVYWEYQIMPQVPVFTVEVKNYGVKNSEWIDACINISHHYCNISDHVGDPSNSLWVRVKARVGQKESAYAKSEEFAVCRDGKIGPPKLDIRKEEKQIMIDIFHPSVFVNGDEQEVDYDPETTCYIRVYNVYVRMNGSEIQYKILTQKEDDCDEIQCQLAIPVSSLNSQYCVSAEGVLHVWGVTTEKSKEVCITIFNSSIKGSLWIPVVAALLLFLVLSLVFICFYIKKINPLKEKSIILPKSLISVVRSATLETKPESKYVSLITSYQPFSLEKEVVCEEPLSPATVPGMHTEDNPGKVEHTEELSSITEVVTTEENIPDVVPGSHLTPIERESSSPLSSNQSEPGSIALNSYHSRNCSESDHSRNGFDTDSSCLESHSSLSDSEFPPNNKGEIKTEGQELITVIKAPTSFGYDKPHVLVDLLVDDSGKESLIGYRPTEDSKEFS [IFNGR1]
percent infected (BHK/HA-Zeo (control)): 97.7%
percent infected (BHK/NZAP-Zeo (ZAP)): 94%

MALLLALSLLVLWTSPAPTLSGTNDAEDCCLSVTQKPIPGYIVRNFHYLLIKDGCRVPAVVFTTLRGRQLCAPPDQPWVERIIQRLQRTSAKMKRRSS [CCL19]
percent infected (BHK/NZAP-Zeo (ZAP)): 70.5%

MALMQELYSTPASRLDSFVAQWLQPHREWKEEVLDAVRTVEEFLRQEHFQGKRGLDQDVRVLKVVKVGSFGNGTVLRSTREVELVAFLSCFHSFQEAAKHHKDVLRLIWKTMWQSQDLLDLGLEDLRMEQRVPDALVFTIQTRGTAEPITVTIVPAYRALGPSLPNSQPPPEVYVSLIKACGGPGNFCPSFSELQRNFVKHRPTKLKSLLRLVKHWYQQYVKARSPRANLPPLYALELLTIYAWEMGTEEDENFMLDEGFTTVMDLLLEYEVICIYWTKYYTLHNAIIEDCVRKQLKKERPIILDPADPTLNVAEGYRWDIVAQRASQCLKQDCCYDNRENPISSWNVKRARDIHLTVEQRGYPDFNLIVNPYEPIRKVKEKIRRTRGYSGLQRLSFQVPGSERQLLSSRCSLAKYGIFSHTHIYLLETIPSEIQVFVKNPDGGSYAYAINPNSFILGLKQQIEDQQGLPKKQQQLEFQGQVLQDWLGLGIYGIQDSDTLILSKKKGEALFPAS [OASL]
percent infected (BHK/HA-Zeo (control)): 97.3%
percent infected (BHK/NZAP-Zeo (ZAP)): 92.8%

MALQRTHSLLLLLLLTLLGLGLVQPSYGQDGMYQRFLRQHVHPEETGGSDRYCNLMMQRRKMTLYHCKRFNTFIHEDIWNIRSICSTTNIQCKNGKMNCHEGVVKVTDCRDTGSSRAPNCRYRAIASTRRVVIACEGNPQVPVHFDG [RNASE4]
percent infected (BHK/HA-Zeo (control)): 98.5%
percent infected (BHK/NZAP-Zeo (ZAP)): 98.3%

MAPEIHMTGPMCLIENTNGELVANPEALKILSAITQPVVVVAIVGLYRTGKSYLMNKLAGKNKGFSLGSTVKSHTKGIWMWCVPHPKKPEHTLVLLDTEGLGDVKKGDNQNDSWIFTLAVLLSSTLVYNSMGTINQQAMDQLYYVTELTHRIRSKSSPDENENEDSADFVSFFPDFVWTLRDFSLDLEADGQPLTPDEYLEYSLKLTQGTSQKDKNFNLPRLCIRKFFPKKKCFVFDLPIHRRKLAQLEKLQDEELDPEFVQQVADFCSYIFSNSKTKTLSGGIKVNGPRLESLVLTYINAISRGDLPCMENAVLALAQIENSAAVQKAIAHYDQQMGQKVQLPAETLQELLDLHRVSEREATEVYMKNSFKDVDHLFQKKLAAQLDKKRDDFCKQNQEASSDRCSALLQVIFSPLEEEVKAGIYSKPGGYCLFIQKLQDLEKKYYEEPRKGIQAEEILQTYLKSKESVTDAILQTDQILTEKEKEIEVECVKAESAQASAKMVEEMQIKYQQMMEEKEKSYQEHVKQLTEKMERERAQLLEEQEKTLTSKLQEQARVLKERCQGESTQLQNEIQKLQKTLKKKTKRYMSHKLKI [GBP3]
percent infected (BHK/HA-Zeo (control)): 98.9%
percent infected (BHK/NZAP-Zeo (ZAP)): 95.6%

MAPEINLPGPMSLIDNTKGQLVVNPEALKILSAITQPVVVVAIVGLYRTGKSYLMNKLAGKKNGFSLGSTVKSHTKGIWMWCVPHPKKPEHTLVLLDTEGLGDIEKGDNENDSWIFALAILLSSTFVYNSMGTINQQAMDQLHYVTELTDRIKANSSPGNNSVDDSADFVSFFPAFVWTLRDFTLELEVDGEPITADDYLELSLKLRKGTDKKSKSFNDPRLCIRKFFPKRKCFVFDWPAPKKYLAHLEQLKEEELNPDFIEQVAEFCSYILSHSNVKTLSGGIPVNGPRLESLVLTYVNAISSGDLPCMENAVLALAQIENSAAVEKAIAHYEQQMGQKVQLPTETLQELLDLHRDSEREAIEVFMKNSFKDVDQMFQRKLGAQLEARRDDFCKQNSKASSDCCMALLQDIFGPLEEDVKQGTFSKPGGYRLFTQKLQELKNKYYQVPRKGIQAKEVLKKYLESKEDVADALLQTDQSLSEKEKAIEVERIKAESAEAAKKMLEEIQKKNEEMMEQKEKSYQEHVKQLTEKMERDRAQLMAEQEKTLALKLQEQERLLKEGFENESKRLQKDIWDIQMRSKSLEPICNIL [GBP2]
percent infected (BHK/HA-Zeo (control)): 74.4%
percent infected (BHK/NZAP-Zeo (ZAP)): 59.4%

MAPISLSWLLRLATFCHLTVLLAGQHHGVTKCNITCSKMTSKIPVALLIHYQQNQASCGKRAIILETRQHRLFCADPKEQWVKDAMQHLDRQAAALTRNGGTFEKQIGEVKPRTTPAAGGMDESVVLEPEATGESSSLEPTPSSQEAQRALGTSPELPTGVTGSSGTRLPPTPKAQDGGPVGTELFRVPPVSTAATWQSSAPHQPGPSLWAEAKTSEAPSTQDPSTQASTASSPAPEENAPSEGQRVWGQGQSPRPENSLEREEMGPVPAHTDAFQDWGPGSMAHVSVVPVSSEGTPSREPVASGSWTPKAEEPIHATMDPQRLGVLITPVPDAQAATRRQAVGLLAFLGLLFCLGVAMFTYQSLQGCPRKMAGEMAEGLRYIPRSCGSNSYVLVPV [CX3CL1]
percent infected (BHK/HA-Zeo (control)): 98.8%
percent infected (BHK/NZAP-Zeo (ZAP)): 95.8%

MAPRRARGCRTLGLPALLLLLLLRPPATRGITCPPPMSVEHADIWVKSYSLYSRERYICNSGFKRKAGTSSLTECVLNKATNVAHWTTPSLKCIRDPALVHQRPAPPSTVTTAGVTPQPESLSPSGKEPAASSPSSNNTAATTAAIVPGSQLMPSKSPSTGTTEISSHESSHGTPSQTTAKNWELTASASHQPPGVYPQGHSDTTVAISTSTVLLCGLSAVSLLACYLKSRQTPPLASVEMEAMEALPVTWGTSSRDEDLENCSHHL [IL15RA]
percent infected (BHK/HA-Zeo (control)): 98.8%
percent infected (BHK/NZAP-Zeo (ZAP)): 98.3%

MAPRSLLLLLSGALALTDTWAGSHSLRYFSTAVSRPGRGEPRYIAVEYVDDTQFLRFDSDAAIPRMEPREPWVEQEGPQYWEWTTGYAKANAQTDRVALRNLLRRYNQSEAGSHTLQGMNGCDMGPDGRLLRGYHQHAYDGKDYISLNEDLRSWTAADTVAQITQRFYEAEEYAEEFRTYLEGECLELLRRYLENGKETLQRADPPKAHVAHHPISDHEATLRCWALGFYPAEITLTWQRDGEEQTQDTELVETRPAGDGTFQKWAAVVVPPGEEQRYTCHVQHEGLPQPLILRWEQSPQPTIPIVGIVAGLVVLGAVVTGAVVAAVMWRKKSSDRNRGSYSQAAV [HLA-F]
percent infected (BHK/HA-Zeo (control)): 96.4%
percent infected (BHK/NZAP-Zeo (ZAP)): 92.9%

MAQAPADPGREGHLEQRILQVLTEAGSPVKLAQLVKECQAPKRELNQVLYRMKKELKVSLTSPATWCLGGTDPEGEGPAELALSSPAERPQQHAATIPETPGPQFSQQREEDIYRFLKDNGPQRALVIAQALGMRTAKDVNRDLYRMKSRHLLDMDEQSKAWTIYRPEDSGRRAKSASIIYQHNPINMICQNGPNSWISIANSEAIQIGHGNIITRQTVSREDGSAGPRHLPSMAPGDSSTWGTLVDPWGPQDIHMEQSILRRVQLGHSNEMRLHGVPSEGPAHIPPGSPPVSATAAGPEASFEARIPSPGTHPEGEAAQRIHMKSCFLEDATIGNSNKMSISPGVAGPGGVAGSGEGEPGEDAGRRPADTQSRSHFPRDIGQPITPSHSKLTPKLETMTLGNRSHKAAEGSHYVDEASHEGSWWGGGI [ZBP1]
percent infected (BHK/HA-Zeo (control)): 96.9%
percent infected (BHK/NZAP-Zeo (ZAP)): 96.8%

MAQASPPRPERVLGASSPEARPAQEALLLPTGVFQVAEKMEKRTCALCPKDVEYNVLYFAQSENIAAHENCLLYSSGLVECEDQDPLNPDRSFDVESVKKEIQRGRKLKCKFCHKRGATVGCDLKNCNKNYHFFCAKKDDAVPQSDGVRGIYKLLCQQHAQFPIIAQSAKFSGVKRKRGRKKPLSGNHVQPPETMKCNTFIRQVKEEHGRHTDATVKVPFLKKCKEAGLLNYLLEEILDKVHSIPEKLMDETTSESDYEEIGSALFDCRLFEDTFVNFQAAIEKKIHASQQRWQQLKEEIELLQDLKQTLCSFQENRDLMSSSTSISSLSY [PHF11]
percent infected (BHK/HA-Zeo (control)): 93.8%
percent infected (BHK/NZAP-Zeo (ZAP)): 75%

MAQEFVNCKIQPGKVVVFIKPTCPYCRRAQEILSQLPIKQGLLEFVDITATNHTNEIQDYLQQLTGARTVPRVFIGKDCIGGCSDLVSLQQSGELLTRLKQIGALQ [GLRX]
percent infected (BHK/HA-Zeo (control)): 93.6%
percent infected (BHK/NZAP-Zeo (ZAP)): 88.4%

MAQRGGARRPRGDRERLGSRLRALRPGREPRQSEPPAQRGPPPSGRPPARSTASGHDRPTRGAAAGARRPRMKKKTRRRSTRSEELTRSEELTLSEEATWSEEATQSEEATQGEEMNRSQEVTRDEESTRSEEVTREEMAAAGLTVTVTHSNEKHDLHVTSQQGSSEPVVQDLAQVVEEVIGVPQSFQKLIFKGKSLKEMETPLSALGIQDGCRVMLIGKKNSPQEEVELKKLKHLEKSVEKIADQLEELNKELTGIQQGFLPKDLQAEALCKLDRRVKATIEQFMKILEEIDTLILPENFKDSRLKRKGLVKKVQAFLAECDTVEQNICQETERLQSTNFALAE [BAG1]
percent infected (BHK/HA-Zeo (control)): 98.4%
percent infected (BHK/NZAP-Zeo (ZAP)): 89.6%
